These are yes or no findings as the source states them, for the method shown. In cells and extracts the contact can be indirect. Some results given as binding are weak or reduced against the parent protein; the word gives no strength.

Sequences of proteins named here, by UniProt entry; tags and fusion partners are left off. A change or cut given only in a name is not applied to a line headed by its entry.
UniProt Q06609: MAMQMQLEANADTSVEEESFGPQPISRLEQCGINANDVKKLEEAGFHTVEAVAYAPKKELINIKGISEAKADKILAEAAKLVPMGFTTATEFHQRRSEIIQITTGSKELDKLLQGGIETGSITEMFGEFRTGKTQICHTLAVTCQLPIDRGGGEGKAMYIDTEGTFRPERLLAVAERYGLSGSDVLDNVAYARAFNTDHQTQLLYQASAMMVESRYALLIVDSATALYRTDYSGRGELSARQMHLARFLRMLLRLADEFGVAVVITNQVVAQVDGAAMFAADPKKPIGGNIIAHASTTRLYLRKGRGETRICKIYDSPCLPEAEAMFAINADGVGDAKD
UniProt P06748: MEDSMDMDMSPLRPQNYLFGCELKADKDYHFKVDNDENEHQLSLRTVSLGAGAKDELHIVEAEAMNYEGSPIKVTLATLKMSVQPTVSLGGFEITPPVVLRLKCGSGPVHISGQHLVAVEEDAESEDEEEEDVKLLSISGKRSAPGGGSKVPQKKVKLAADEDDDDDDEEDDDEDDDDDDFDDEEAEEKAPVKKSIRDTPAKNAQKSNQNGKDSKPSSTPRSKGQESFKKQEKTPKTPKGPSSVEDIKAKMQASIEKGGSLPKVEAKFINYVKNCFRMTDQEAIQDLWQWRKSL

The target of this assay is RAD51 (human (endogenous in HEK293)) (UniProt Q06609). In words: co-IP; as a1 but unirradiated cells (0 Gy, no YTR107); IP with RAD51 antibody, blot with FLAG antibody.

As for “chimeric GFP/FLAG/NPM1 protein (nucleophosmin1) (from UniProt P06748 1-294)”, the binding result was “binds weakly”.
